Percent effect of library compounds

By UniProt entry, the sequences of proteins in these tests, tags left out. Residues count along the entry.
UniProt P9WNZ1, whole entry: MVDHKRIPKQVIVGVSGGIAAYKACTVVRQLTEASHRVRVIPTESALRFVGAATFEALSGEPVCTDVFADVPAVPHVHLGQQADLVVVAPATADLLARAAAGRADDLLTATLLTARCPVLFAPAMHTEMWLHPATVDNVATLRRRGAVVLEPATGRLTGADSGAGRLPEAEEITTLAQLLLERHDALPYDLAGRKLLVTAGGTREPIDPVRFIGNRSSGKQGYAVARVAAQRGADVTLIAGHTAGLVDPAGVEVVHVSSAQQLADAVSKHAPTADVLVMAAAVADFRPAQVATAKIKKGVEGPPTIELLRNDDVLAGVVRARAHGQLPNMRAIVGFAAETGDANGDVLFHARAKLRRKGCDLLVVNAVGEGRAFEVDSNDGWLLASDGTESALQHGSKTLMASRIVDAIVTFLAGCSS
UniProt P9WFT3, whole entry: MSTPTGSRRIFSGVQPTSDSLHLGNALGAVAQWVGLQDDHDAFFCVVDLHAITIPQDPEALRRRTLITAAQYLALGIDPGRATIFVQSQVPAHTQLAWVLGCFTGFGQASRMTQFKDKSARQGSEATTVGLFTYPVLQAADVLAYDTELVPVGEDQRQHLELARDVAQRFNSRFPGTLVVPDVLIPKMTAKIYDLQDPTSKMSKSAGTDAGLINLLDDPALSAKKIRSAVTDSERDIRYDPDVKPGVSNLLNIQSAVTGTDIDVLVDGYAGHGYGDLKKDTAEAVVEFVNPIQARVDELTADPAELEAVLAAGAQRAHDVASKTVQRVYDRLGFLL
UniProt P9WPC5, whole entry: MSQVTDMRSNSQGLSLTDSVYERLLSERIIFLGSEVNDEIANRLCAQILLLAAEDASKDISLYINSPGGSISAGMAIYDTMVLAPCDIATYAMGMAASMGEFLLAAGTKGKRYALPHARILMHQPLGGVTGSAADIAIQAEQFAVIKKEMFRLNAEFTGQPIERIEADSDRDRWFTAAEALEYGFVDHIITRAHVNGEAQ
UniProt P9WPC3, whole entry partner: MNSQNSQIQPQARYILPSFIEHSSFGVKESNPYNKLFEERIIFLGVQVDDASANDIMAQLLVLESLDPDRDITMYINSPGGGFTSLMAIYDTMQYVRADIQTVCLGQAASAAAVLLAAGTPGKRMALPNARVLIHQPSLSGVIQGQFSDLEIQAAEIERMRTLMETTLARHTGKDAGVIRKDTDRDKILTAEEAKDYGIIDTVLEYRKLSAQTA
UniProt A4I591, 1-473: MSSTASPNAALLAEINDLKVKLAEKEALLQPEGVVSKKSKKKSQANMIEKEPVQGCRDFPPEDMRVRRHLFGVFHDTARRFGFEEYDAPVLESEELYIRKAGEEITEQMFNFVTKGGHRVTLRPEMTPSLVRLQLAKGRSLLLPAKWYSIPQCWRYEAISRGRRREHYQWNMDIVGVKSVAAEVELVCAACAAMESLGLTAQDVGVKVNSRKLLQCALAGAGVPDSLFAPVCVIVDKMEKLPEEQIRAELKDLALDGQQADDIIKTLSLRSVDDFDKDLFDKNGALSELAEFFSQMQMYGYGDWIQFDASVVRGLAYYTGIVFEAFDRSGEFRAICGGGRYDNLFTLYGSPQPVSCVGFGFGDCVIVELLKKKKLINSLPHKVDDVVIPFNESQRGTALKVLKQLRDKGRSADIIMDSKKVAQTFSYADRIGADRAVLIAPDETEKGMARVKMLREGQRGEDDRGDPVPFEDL
UniProt Q4DA54, 1-478: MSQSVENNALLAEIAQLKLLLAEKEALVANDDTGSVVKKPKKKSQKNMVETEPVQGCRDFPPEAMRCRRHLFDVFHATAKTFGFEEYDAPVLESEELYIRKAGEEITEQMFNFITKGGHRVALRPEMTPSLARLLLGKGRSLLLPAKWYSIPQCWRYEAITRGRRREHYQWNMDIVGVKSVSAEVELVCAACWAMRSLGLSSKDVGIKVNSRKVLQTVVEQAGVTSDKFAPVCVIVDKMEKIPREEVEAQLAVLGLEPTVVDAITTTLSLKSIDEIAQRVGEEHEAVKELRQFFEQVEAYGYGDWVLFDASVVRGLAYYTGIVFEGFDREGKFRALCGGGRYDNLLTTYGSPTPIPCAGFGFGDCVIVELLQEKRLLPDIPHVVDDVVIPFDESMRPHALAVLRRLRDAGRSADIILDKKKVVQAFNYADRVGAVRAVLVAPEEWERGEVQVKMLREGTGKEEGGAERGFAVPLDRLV

CoaBC: 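Coenzyme A biosynthesis protein CoaBC, Mycobacterium tuberculosis (UniProt P9WNZ1). Enzyme assay of CoaBC with a phosphate dye (Biomol Green) read at 650 nm. Concentration: 30 µM. Higher reads as stronger inhibition, judged from the few compounds that gave an IC50. Most strong results did not repeat in a second test. Size under these conditions: about 67,000 compounds, about 40 of them at 50% or above in at least one test.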
MtTrpRS: 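Tryptophan-tRNA ligase, Mycobacterium tuberculosis (UniProt P9WFT3). Enzyme assay of tryptophanyl-tRNA synthetase; the read-out is not stated. Concentration: 10 µM. Direction is not recorded; retested compounds ran higher, which suggests that high means inhibition. About 65,000 compounds were tested under these conditions; 0.098% (about 64) showed 50% or more at least once.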
ClpP1P2: 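ClpP1P2, Mycobacterium tuberculosis (UniProt P9WPC5 and UniProt P9WPC3). Protease assay of ClpP1P2, read by the AMC dye that it sets free. Concentration: 50 µM. Higher reads as stronger inhibition, judged from the few compounds that gave an IC50. Most other retested compounds had strongly negative values. About 69,000 compounds were tested under these conditions; 0.015% (about 10) showed 50% or more at least once.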
LiHisRS: 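Enzyme assay of histidyl-tRNA synthetase; the read-out is not stated. Target: Histidine-tRNA ligase, Leishmania infantum (UniProt A4I591). Concentration: 30 µM. Higher reads as stronger inhibition (inferred: compounds with an IC50 in retests scored well above the rest). The assay is labelled LdHisRS but filed under L. infantum. About 69,000 compounds were tested under these conditions; 0.6% (about 410) showed 50% or more at least once.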
TcHisRS: 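Enzyme assay of histidyl-tRNA synthetase; the read-out is not stated. Target: Histidine-tRNA ligase, Trypanosoma cruzi CL Brener (UniProt Q4DA54). Concentration: 30 µM. Direction is inferred from retests: higher values go with stronger inhibition. About 69,000 compounds were tested under these conditions; 0.045% (about 31) showed 50% or more at least once.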

Values are the deposited “Percent Effect”, in %.
The controls that fix the scale are not given in the record; negative values are as filed.
The compounds are a random part of those screened.
A dash means the value is not listed here; it may have been measured.

structure	CoaBC	MtTrpRS	ClpP1P2	LiHisRS	TcHisRS
O=S(=O)(c1ccc(F)cc1)n1cc(Cl)cn1	7.767%	0.144%	-7.461%	14.29%	12.87%
CCN(C)S(=O)(=O)c1c(F)cc(NC(C)=O)cc1F	9.677%	-7.796%	-3.871%	13.16%	6.145%
COc1cnc(C2(O)CCN(C(=O)c3ccco3)CC2)c(OC)n1	2.427%	-	-3.626%	4.348%	1.099%
CNC(=O)c1cc2c(s1)CCN(C(=O)CCC1CCCN(C)C1)C2 (stereo not drawn)	-1.22%	4.665%	-12.41%	14.4%	3.922%
Cc1nc(N[C@H]2COC[C@@H]2N2CCCCC2)c2c(C)nn(C)c2n1	-0.9709%	-1.569%	-14.83%	19.28%	4.972%
O=C(N[C@H]1CN(c2nc(CO)cs2)C[C@@H]1C1CC1)C1CCCCC1	1.684%	2.452%	-0.8696%	24.47%	-35.35%
Cc1nc(N(C)C)ncc1C(=O)NCCc1csc(-c2cnccn2)n1	-4.104%	-0.5696%	9.271%	8.264%	0.8403%
Cc1noc(C)c1CNC(=O)NCCOc1ccc(F)cc1F	-10.84%	3.185%	-3.152%	19.4%	6.383%
Cc1cnc(CN2CCOC(Cn3nc(C)nc3C)C2)cn1 (stereo not drawn)	-0.2571%	-0.5507%	16.14%	7.865%	5.263%
O=C(NCCC(=O)N1CCCc2ccccc21)c1c(F)cccc1F	2.35%	-5.768%	-51.45%	13.27%	9.621%
CCOCCn1c(=O)[nH]c2cc(C(=O)N(C)Cc3cc(C)[nH]n3)ccc21	14.11%	-0.3298%	-14.53%	7.547%	-1.667%
O=S(=O)(c1ccccc1Cl)N1CCCC(c2ncc[nH]2)C1 (stereo not drawn)	0.2141%	-1.613%	-5.125%	11.67%	5.682%
Cc1occc1CNC(=O)C1(C)CCCN1C(=O)c1ccccc1 (stereo not drawn)	4.156%	2.086%	-6.077%	19.18%	4.372%
CN(C)C(=O)CCS(=O)(=O)Cc1coc(-c2ccc(F)cc2)n1	4.133%	0.768%	8.514%	24.49%	9.231%
CO[C@H]1CC[C@H]2[C@H]1OCCN2C(=O)C1=CCCC1	-3.268%	29.13%	7.571%	5.263%	5.464%
Cc1ccccc1CCC(=O)N1CCCC(c2cc(C(N)=O)[nH]n2)C1 (stereo not drawn)	-2.212%	-6.638%	-29.4%	4.386%	9.012%
CCN1CCCN(C(=O)c2ccc(NC(=O)CC(C)C)c(C)c2)CC1	-3.944%	1.485%	-7.408%	7.317%	5.288%
Cc1ccc2oc(C(=O)N3CCCC(c4noc(C)n4)C3)cc2n1 (stereo not drawn)	4.145%	6.904%	4.673%	17.02%	3.053%
COc1ccc2c(c1)CC(NCCCn1nc(C)nc1C)CC2 (stereo not drawn)	9.383%	-6.891%	9.362%	5.594%	8.458%
CO[C@@H]1CCN(S(=O)(=O)c2cccs2)[C@H]1Cc1ccccc1	-2.03%	-5.514%	-9.814%	14.71%	-2.956%
NC(=O)C(NC(=O)COC1CCCCC1)c1ccccc1 (stereo not drawn)	-4.914%	2.913%	-3.713%	19.84%	12.94%
Cc1noc(C)c1CN1CC[C@H]2C[C@H](c3ccncn3)O[C@@H]2C1	3.854%	-2.979%	4.983%	17.43%	7.563%
CS(=O)(=O)NC[C@H]1OC[C@H]2CN(Cc3ccsc3)CC[C@H]21	-0.7407%	-5.898%	-13.08%	9.722%	6.542%
O=C(c1cc2ccccc2o1)N1CCN(Cn2cc(Cl)cn2)CC1	1.261%	-3.259%	7.633%	7.692%	7.778%
CNc1ncc(CN(C)c2nc(C3CCCC3)nc3c2cnn3C)cn1	1.805%	0.1467%	15.42%	-6.742%	2.513%
Cn1ccnc1C(=O)N1CCC(Cn2cc(-c3ccsc3)nn2)CC1	9.442%	0.08794%	-4.132%	4.918%	-5.814%
CC(C)CN1CCn2nc(CNc3ncnc4[nH]ccc34)cc2C1	6.2%	12.51%	29.99%	40.82%	8.205%
CC(C)c1noc(CCC(=O)NCC2CC2)n1	-2.045%	12.72%	-23.28%	16.07%	4.611%
O=C(OCCNc1ncccn1)c1ccc(Br)s1	-0.6061%	-1.212%	-9.548%	12.9%	6.122%
c1ccc(NCc2cnc3n2CCN(C2CCOC2)CC3)nc1 (stereo not drawn)	4.665%	0.8403%	15.61%	13.76%	0.8403%
CC(=O)N1CCC(c2nn(C)c(=O)n2-c2ccccc2)CC1	3.361%	-7.204%	-6.388%	5.983%	4.444%
CN(CC1CC1)C(=O)c1cc2c(c(S(N)(=O)=O)c1)CCC2	-0.4032%	-3.846%	-5.139%	21.05%	0.5587%
CCn1cc(S(=O)(=O)NC(CO)Cc2ccccc2)cn1 (stereo not drawn)	-	-3.199%	-1.695%	25.71%	6.494%
CCc1nccn1C1CCCN(C(=O)c2ccc3nnc(C)n3c2)C1 (stereo not drawn)	0.129%	-2.726%	0.6466%	13.91%	4.023%
Cc1c(-c2ccccc2)ncn1CC(c1cccnc1)N1CCOCC1 (stereo not drawn)	-27.27%	-8.93%	1.341%	30.67%	22.54%
CC(=O)N1CCC[C@@H](NCc2c[nH]c3ccccc23)[C@@H]1c1ccc(C)s1	2.101%	-3.137%	-11.35%	15.86%	6.084%
COc1ccccc1CC(=O)NS(=O)(=O)c1ccc(NC(C)=O)cc1	3.584%	-6.671%	-5.361%	13.46%	5.143%
CCN1CCC(CNC(=O)NCc2cc(-c3ccc(C)cc3)no2)C1 (stereo not drawn)	-9.781%	0.6803%	8.706%	33.85%	2.682%

For reference, 3 entries once more:

| structure | CoaBC | MtTrpRS | ClpP1P2 | LiHisRS | TcHisRS |
|---|---|---|---|---|---|
| `CCN1CCCN(C(=O)c2ccc(NC(=O)CC(C)C)c(C)c2)CC1` | -3.944% | 1.485% | -7.408% | 7.317% | 5.288% |
| `CO[C@H]1CC[C@H]2[C@H]1OCCN2C(=O)C1=CCCC1` | -3.268% | 29.13% | 7.571% | 5.263% | 5.464% |
| `Cn1ccnc1C(=O)N1CCC(Cn2cc(-c3ccsc3)nn2)CC1` | 9.442% | 0.08794% | -4.132% | 4.918% | -5.814% |

Data taken from ChEMBL document CHEMBL3988442, “University of Dundee, Small-Polar-MMV Screening Library” (2021).